Results deposited as PubChem BioAssay AID1259405 (NCATS, 2018)

Test: 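Silenced genes that increase secreted GFP made by CHO cells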 (primary screen)
System: Chinese hamster CHO-K1 ovary cells with stable secreted eGFP expression
Knock-down reagent: single siRNA against mouse genes, 0.8 pmol siRNA per well (2 µl of 400 nM stock)
Time to read-out: 3 days
Measurement: 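Per-well intracellular GFP measured by laser scanning cytometry, plus viability from ATP luminescence, each relative to plate median of non-targeting control wells, in %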
Direction: GFP, % of control: higher = more GFP per well, higher productivity; viability (ATP), % of control: higher = more viable cells (more ATP)
Call rule: 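Called active when intracellular GFP, relative to negative control, is at or above 120%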
The whole screen tested about 50,000 reagents; this is a random part of them. About 4,000 of them (8%) were called active. 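Mouse siRNA library applied to hamster cells; one well for each siRNA.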 Reagents against one gene are numbered here.

target gene | siRNA no. | GFP, % of control | viability (ATP), % of control | activity call
Ankrd28 (GeneID 105522) | 1 | 52.2 | 37.8 | inactive
Ankrd28 (GeneID 105522) | 2 | 66.7 | 78.1 | inactive
Ankrd28 (GeneID 105522) | 3 | 77.7 | 72.8 | inactive
Erh (GeneID 13877) | 1 | 65.3 | 89.3 | inactive
Erh (GeneID 13877) | 2 | 152 | 58 | active
Erh (GeneID 13877) | 3 | 83.6 | 83.4 | inactive
Spib (GeneID 272382) | 1 | 70 | 71.2 | inactive
Spib (GeneID 272382) | 2 | 55.5 | 54.6 | inactive
Spib (GeneID 272382) | 3 | 101 | 39 | inactive
Stoml1 (GeneID 69106) | 1 | 51.2 | 74.1 | inactive
Stoml1 (GeneID 69106) | 2 | 69.8 | 94.8 | inactive
Stoml1 (GeneID 69106) | 3 | 70.8 | 79.4 | inactive
Ppcdc (GeneID 66812) | 1 | 93.8 | 67.4 | inactive
Ppcdc (GeneID 66812) | 2 | 63.7 | 95.2 | inactive
Ppcdc (GeneID 66812) | 3 | 85 | 104 | inactive
Smo (GeneID 319757) | 1 | 67.9 | 51.8 | inactive
Smo (GeneID 319757) | 2 | 51.8 | 51.8 | inactive
Smo (GeneID 319757) | 3 | 52.8 | 49.6 | inactive
Slc28a1 (GeneID 434203) | 1 | 92.8 | 90.3 | inactive
Slc28a1 (GeneID 434203) | 2 | 44.5 | 42.2 | inactive
Slc28a1 (GeneID 434203) | 3 | 97.8 | 71.5 | inactive
Chst10 (GeneID 98388) | 1 | 130 | 123 | active
Chst10 (GeneID 98388) | 2 | 99.8 | 174 | inactive
Chst10 (GeneID 98388) | 3 | 139 | 90.3 | active
Tlcd1 (GeneID 68385) | 1 | 85.9 | 87.1 | inactive
Tlcd1 (GeneID 68385) | 2 | 77.7 | 73.3 | inactive
Tlcd1 (GeneID 68385) | 3 | 85.2 | 91.6 | inactive
Or5k14 (GeneID 258998) | 1 | 110 | 114 | inactive
Or5k14 (GeneID 258998) | 2 | 63.1 | 82.3 | inactive
Or5k14 (GeneID 258998) | 3 | 56.9 | 103 | inactive
Or5k14 (GeneID 258998) | 4 | 60.7 | 98.5 | inactive
Or5k14 (GeneID 258998) | 5 | 70 | 98 | inactive
Or5k14 (GeneID 258998) | 6 | 70.6 | 115 | inactive
9530009G21Rik (GeneID 320305) | 1 | 59.4 | 80.9 | inactive
9530009G21Rik (GeneID 320305) | 2 | 70.4 | 77.8 | inactive
9530009G21Rik (GeneID 320305) | 3 | 70.1 | 75.9 | inactive
Vwa3b (GeneID 70853) | 1 | 165 | 103 | active
Vwa3b (GeneID 70853) | 2 | 81.6 | 84.4 | inactive
Vwa3b (GeneID 70853) | 3 | 62.3 | 34.9 | inactive
Vwa3b (GeneID 70853) | 4 | 89.5 | 114 | inactive
Vwa3b (GeneID 70853) | 5 | 82.3 | 69 | inactive
Vwa3b (GeneID 70853) | 6 | 66.9 | 84.4 | inactive
Rbx1 (GeneID 56438) | 1 | 91.1 | 78.6 | inactive
Rbx1 (GeneID 56438) | 2 | 105 | 64.7 | inactive
Rbx1 (GeneID 56438) | 3 | 102 | 115 | inactive
Or9m1b (GeneID 258643) | 1 | 43 | 52.1 | inactive
Or9m1b (GeneID 258643) | 2 | 58.6 | 60 | inactive
Or9m1b (GeneID 258643) | 3 | 66.8 | 46.9 | inactive
H2-T10 (GeneID 15024) | 1 | 62.5 | 68.5 | inactive
H2-T10 (GeneID 15024) | 2 | 58.5 | 43 | inactive
H2-T10 (GeneID 15024) | 3 | 77.4 | 53.2 | inactive
Cmtm2a (GeneID 73381) | 1 | 66.3 | 60.2 | inactive
Cmtm2a (GeneID 73381) | 2 | 62.9 | 78.6 | inactive
Cmtm2a (GeneID 73381) | 3 | 102 | 118 | inactive
Ptpn5 (GeneID 19259) | 1 | 88.4 | 86.7 | inactive
Ptpn5 (GeneID 19259) | 2 | 123 | 82.9 | active
Ptpn5 (GeneID 19259) | 3 | 103 | 88 | inactive
Dtwd1 (GeneID 69185) | 1 | 95.5 | 97.9 | inactive
Dtwd1 (GeneID 69185) | 2 | 94.3 | 90.5 | inactive
Dtwd1 (GeneID 69185) | 3 | 47.2 | 70.5 | inactive
Or52e4 (GeneID 258355) | 1 | 114 | 76.3 | inactive
Or52e4 (GeneID 258355) | 2 | 121 | 64.3 | active
Or52e4 (GeneID 258355) | 3 | 62.5 | 116 | inactive
Afap1 (GeneID 70292) | 1 | 108 | 68.8 | inactive
Afap1 (GeneID 70292) | 2 | 86.2 | 66.3 | inactive
Afap1 (GeneID 70292) | 3 | 62.2 | 56.3 | inactive
Ngly1 (GeneID 59007) | 1 | 96 | 94.5 | inactive
Ngly1 (GeneID 59007) | 2 | 79 | 61.9 | inactive
Ngly1 (GeneID 59007) | 3 | 114 | 85.1 | inactive
Stat2 (GeneID 20847) | 1 | 78.6 | 96.5 | inactive
Stat2 (GeneID 20847) | 2 | 69.6 | 79.9 | inactive
Stat2 (GeneID 20847) | 3 | 58 | 101 | inactive
Cyp2d9 (GeneID 13105) | 1 | 84.9 | 57.3 | inactive
Cyp2d9 (GeneID 13105) | 2 | 89.9 | 73.1 | inactive
Cyp2d9 (GeneID 13105) | 3 | 53 | 56.2 | inactive
Rpl32 (GeneID 19951) | 1 | 64.8 | 74.8 | inactive
Rpl32 (GeneID 19951) | 2 | 58.5 | 33.7 | inactive
Rpl32 (GeneID 19951) | 3 | 26.9 | 29.5 | inactive
Ica1 (GeneID 15893) | 1 | 56.4 | 87.8 | inactive
Ica1 (GeneID 15893) | 2 | 69.2 | 60.2 | inactive
Ica1 (GeneID 15893) | 3 | 85.7 | 91.8 | inactive
Vmn2r43 (GeneID 381838) | 1 | 60.5 | 55.3 | inactive
Vmn2r43 (GeneID 381838) | 2 | 91.7 | 90.2 | inactive
Vmn2r43 (GeneID 381838) | 3 | 51.6 | 79.2 | inactive
